Laboratory results: the supplement of paper PMC8728848
Some of the results follow.

Tests used:
Assay in all cases: glycan array binding signal (z-score within array); higher = stronger binding
Conditions in all cases: glycan notation: IUPAC condensed, linker removed
[1] = molecular target: GalNAc3S(b1-4)[Fuc(a1-3)]GlcNAc
Method in brief: (§1)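 Negative Z-scores can be read as non-binding. The Z-score is calculated within each array and then averaged across arrays of one protein sequence at different concentrations or buffers and across linkers. Arrays, 3228 in all, were curated from the Consortium for Functional Glycomics database and kept only where the protein sequence was available.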

GalNAc4S6S(b1-4)GlcNAc = molecular target: GalNAc4S6S(b1-4)GlcNAc
Method in brief: as §1

GalNAc6S(b1-4)GlcNAc = molecular target: GalNAc6S(b1-4)GlcNAc
Method in brief: as §1

Glc(a1-4)Glc = molecular target: Glc(a1-4)Glc
Method in brief: as §1

[2] = molecular target: Glc(a1-4)Glc(a1-4)Glc(a1-4)Glc
Method in brief: as §1

Glc(a1-6)Glc(a1-6)Glc = molecular target: Glc(a1-6)Glc(a1-6)Glc
Method in brief: as §1

[3] = molecular target: Glc(a1-6)Glc(a1-6)Glc(a1-6)Glc
Method in brief: as §1

Glc(b1-4)Glc = molecular target: Glc(b1-4)Glc
Method in brief: as §1

Glc(b1-6)Glc = molecular target: Glc(b1-6)Glc
Method in brief: as §1

GlcA(b1-3)Gal = molecular target: GlcA(b1-3)Gal
Method in brief: as §1

GlcA(b1-3)GlcNAc = molecular target: GlcA(b1-3)GlcNAc
Method in brief: as §1

GlcA(b1-6)Gal = molecular target: GlcA(b1-6)Gal
Method in brief: as §1

[4] = molecular target: GlcA3S(b1-3)Gal(b1-4)GlcNAc(b1-2)Man
Method in brief: as §1

[5] = molecular target: GlcA3S(b1-3)Gal(b1-4)GlcNAc(b1-3)Gal(b1-4)Glc
Method in brief: as §1

[6] = molecular target: GlcNAc(a1-3)Gal(b1-4)GlcNAc
Method in brief: as §1

[7] = molecular target: GlcNAc(a1-4)Gal(b1-3)GlcNAc
Method in brief: as §1

[8] = molecular target: GlcNAc(a1-4)Gal(b1-4)GalNAc
Method in brief: as §1

[9] = molecular target: GlcNAc(a1-4)Gal(b1-4)GlcNAc
Method in brief: as §1

[10] = molecular target: GlcNAc(a1-4)Gal(b1-4)GlcNAc(b1-3)Gal(b1-4)Glc
Method in brief: as §1

[11] = molecular target: GlcNAc(a1-4)Gal(b1-4)GlcNAc(b1-3)Gal(b1-4)GlcNAc
Method in brief: as §1

[12] = molecular target: GlcNAc(a1-4)Gal(b1-4)GlcNAc(b1-3)Gal(b1-4)GlcNAc(b1-3)Gal(b1-4)GlcNAc
Method in brief: as §1

[13] = molecular target: GlcNAc(a1-4)Gal(b1-4)GlcNAc(b1-3)Gal(b1-4)[Fuc(a1-3)]GlcNAc(b1-3)Gal(b1-4)[Fuc(a1-3)]GlcNAc
Method in brief: as §1

[14] = molecular target: GlcNAc(a1-6)Gal(b1-4)GlcNAc
Method in brief: as §1

[15] = molecular target: GlcNAc(b1-2)Gal(b1-3)GalNAc
Method in brief: as §1

[16] = molecular target: GlcNAc(b1-2)Man(a1-3)[GlcNAc(b1-2)Man(a1-6)]Man(b1-4)GlcNAc(b1-4)GlcNAc
Method in brief: as §1

[17] = molecular target: GlcNAc(b1-2)Man(a1-3)[GlcNAc(b1-2)Man(a1-6)]Man(b1-4)GlcNAc(b1-4)[Fuc(a1-6)]GlcNAc
Method in brief: as §1

[18] = molecular target: GlcNAc(b1-2)Man(a1-3)[GlcNAc(b1-4)][GlcNAc(b1-2)Man(a1-6)]Man(b1-4)GlcNAc(b1-4)GlcNAc
Method in brief: as §1

[19] = molecular target: GlcNAc(b1-2)Man(a1-3)[GlcNAc(b1-4)][GlcNAc(b1-2)Man(a1-6)]Man(b1-4)GlcNAc(b1-4)[Fuc(a1-6)]GlcNAc
Method in brief: as §1

[20] = molecular target: GlcNAc(b1-2)[GlcNAc(b1-4)]Man(a1-3)[GlcNAc(b1-2)Man(a1-6)]Man(b1-4)GlcNAc(b1-4)GlcNAc
Method in brief: as §1

[21] = molecular target: GlcNAc(b1-2)[GlcNAc(b1-4)]Man(a1-3)[GlcNAc(b1-4)][GlcNAc(b1-2)Man(a1-6)]Man(b1-4)GlcNAc(b1-4)GlcNAc
Method in brief: as §1

[22] = molecular target: GlcNAc(b1-2)[GlcNAc(b1-4)]Man(a1-3)[GlcNAc(b1-4)][GlcNAc(b1-2)[GlcNAc(b1-6)]Man(a1-6)]Man(b1-4)GlcNAc(b1-4)GlcNAc
Method in brief: as §1

[23] = molecular target: GlcNAc(b1-2)[GlcNAc(b1-4)]Man(a1-3)[GlcNAc(b1-4)][GlcNAc(b1-2)[GlcNAc(b1-6)]Man(a1-6)]Man(b1-4)GlcNAc(b1-4)[Fuc(a1-6)]GlcNAc
Method in brief: as §1

[24] = molecular target: GlcNAc(b1-2)[GlcNAc(b1-6)]Man(a1-6)[GlcNAc(b1-2)Man(a1-3)]Man(b1-4)GlcNAc(b1-4)GlcNAc
Method in brief: as §1

[25] = molecular target: GlcNAc(b1-2)[GlcNAc(b1-6)]Man(a1-6)[GlcNAc(b1-2)Man(a1-3)]Man(b1-4)GlcNAc(b1-4)[Fuc(a1-6)]GlcNAc
Method in brief: as §1

[26] = molecular target: GlcNAc(b1-2)[GlcNAc(b1-6)]Man(a1-6)[GlcNAc(b1-4)][GlcNAc(b1-2)Man(a1-3)]Man(b1-4)GlcNAc(b1-4)GlcNAc
Method in brief: as §1

GlcNAc(b1-3)Fuc = molecular target: GlcNAc(b1-3)Fuc
Method in brief: as §1

GlcNAc(b1-3)Gal = molecular target: GlcNAc(b1-3)Gal
Method in brief: as §1

[27] = molecular target: GlcNAc(b1-3)Gal(b1-3)GalNAc
Method in brief: as §1

B1: SspB C123 (Streptococcus gordonii), Q54186 (protein)
chain: MAHFHYSSLLAQPQINKEIKNEDGVDIDRTLVAKQSIGKFELKTEALTAGRPKTTSFVLVDPLPTGYKFDLDATKAASTGFDTTYDEASHTVTFKATDETLATYNADLTKPVETLHPTVVGRVLNDGATYTNNFTLTVNDAYGIKSNVVRVTTPGKPNDPDNPNNNYIKPTKVNKNKEGLNIDGKEVLAGSTNYYELTWDLDQYKGDKSSKEAIQNGFYYVDDYPEEALDVRPDLVKVADEKGNQVSGVSVQQYDSLEAAPKKVQDLLKKANITVKGAFQLFSADNPEEFYKQYVSTGTSLVITDPMTVKSEFGKTGGKYENKAYQIDFGNGYATEVVVNNVPKITPKKDVTVSLDPTSENLDGQTVQLYQTFNYRLIGGFIPQNHSEELEDYSFVDDYDQAGDQYTGNYKTFSSLNLTMKDGSVIKAGTDLTSQTTAETDATNGIVTVRFKEDFLQKISLDSPFQAETYLQMRRIAIGTFENTYVNTVNKVAYASAAALEHHHHHH
glycan array binding signal (z-score) [1]: 0.635
glycan array binding signal (z-score) (GalNAc4S6S(b1-4)GlcNAc): -0.886
glycan array binding signal (z-score) (GalNAc6S(b1-4)GlcNAc): -0.443
glycan array binding signal (z-score) (Glc(a1-4)Glc): -0.478
glycan array binding signal (z-score) [2]: 0.337
glycan array binding signal (z-score) (Glc(a1-6)Glc(a1-6)Glc): 1.79
glycan array binding signal (z-score) [3]: 0.098
glycan array binding signal (z-score) (Glc(b1-4)Glc): -0.604
glycan array binding signal (z-score) (Glc(b1-6)Glc): -1.66
glycan array binding signal (z-score) (GlcA(b1-3)Gal): -1.48
glycan array binding signal (z-score) (GlcA(b1-3)GlcNAc): -0.479
glycan array binding signal (z-score) (GlcA(b1-6)Gal): 3.52
glycan array binding signal (z-score) [4]: -0.13
glycan array binding signal (z-score) [5]: 0.178
glycan array binding signal (z-score) [6]: -1.31
glycan array binding signal (z-score) [7]: -0.755
glycan array binding signal (z-score) [8]: 0.672
glycan array binding signal (z-score) [9]: -1.85
glycan array binding signal (z-score) [10]: -0.583
glycan array binding signal (z-score) [11]: 0.032
glycan array binding signal (z-score) [12]: -1.02
glycan array binding signal (z-score) [13]: 0.575
glycan array binding signal (z-score) [14]: 1.46
glycan array binding signal (z-score) [15]: -0.188
glycan array binding signal (z-score) [16]: -0.534
glycan array binding signal (z-score) [17]: 1.53
glycan array binding signal (z-score) [18]: 1.06
glycan array binding signal (z-score) [19]: -0.492
glycan array binding signal (z-score) [20]: -1.03
glycan array binding signal (z-score) [21]: -1.11
glycan array binding signal (z-score) [22]: -1.27
glycan array binding signal (z-score) [23]: -0.632
glycan array binding signal (z-score) [24]: 1.83
glycan array binding signal (z-score) [25]: -0.643
glycan array binding signal (z-score) [26]: -0.514
glycan array binding signal (z-score) (GlcNAc(b1-3)Fuc): -0.912
glycan array binding signal (z-score) (GlcNAc(b1-3)Gal): 0.925
glycan array binding signal (z-score) [27]: -0.32
